The supplement of paper PMC12819154, “High-throughput peptide-centric local stability assay extends protein–ligand identification to membrane proteins, tissues and bacteria” (Nature Structural & Molecular Biology, 2025)
Some of the results follow. Most values lie at the level of the controls, where differences are scatter.

Protein sequences, listed by entry. Tags and fused reporters are not part of them. Lines headed by an entry give the natural chain unless they say otherwise; changes in a name come on top.
UniProt Q9JK81: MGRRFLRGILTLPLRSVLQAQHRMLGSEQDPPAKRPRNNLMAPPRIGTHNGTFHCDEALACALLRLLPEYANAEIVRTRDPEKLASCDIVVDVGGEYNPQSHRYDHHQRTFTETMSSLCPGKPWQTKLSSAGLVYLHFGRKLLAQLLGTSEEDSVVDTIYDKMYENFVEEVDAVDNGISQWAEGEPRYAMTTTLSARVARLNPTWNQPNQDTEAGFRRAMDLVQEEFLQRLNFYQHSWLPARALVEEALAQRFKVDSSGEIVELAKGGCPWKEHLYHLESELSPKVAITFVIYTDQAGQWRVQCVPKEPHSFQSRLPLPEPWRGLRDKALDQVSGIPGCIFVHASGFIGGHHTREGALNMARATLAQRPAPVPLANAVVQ
UniProt Q9JLJ1, whole entry: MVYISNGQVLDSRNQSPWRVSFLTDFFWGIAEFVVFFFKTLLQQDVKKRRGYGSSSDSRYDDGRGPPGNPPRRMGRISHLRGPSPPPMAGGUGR
UniProt Q9QUH0: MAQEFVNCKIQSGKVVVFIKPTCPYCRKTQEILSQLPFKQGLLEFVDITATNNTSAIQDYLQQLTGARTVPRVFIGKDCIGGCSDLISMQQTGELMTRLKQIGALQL
UniProt Q9JKS5: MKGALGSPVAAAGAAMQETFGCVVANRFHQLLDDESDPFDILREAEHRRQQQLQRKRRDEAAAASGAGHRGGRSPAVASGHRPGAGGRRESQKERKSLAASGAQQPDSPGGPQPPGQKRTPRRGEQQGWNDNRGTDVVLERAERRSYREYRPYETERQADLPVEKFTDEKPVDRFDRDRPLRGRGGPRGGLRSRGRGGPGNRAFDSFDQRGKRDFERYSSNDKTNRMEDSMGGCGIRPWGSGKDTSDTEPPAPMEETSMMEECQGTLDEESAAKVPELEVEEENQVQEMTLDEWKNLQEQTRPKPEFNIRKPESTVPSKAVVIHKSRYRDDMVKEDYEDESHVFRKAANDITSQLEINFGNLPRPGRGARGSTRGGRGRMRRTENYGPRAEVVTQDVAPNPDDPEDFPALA
UniProt Q9ES46: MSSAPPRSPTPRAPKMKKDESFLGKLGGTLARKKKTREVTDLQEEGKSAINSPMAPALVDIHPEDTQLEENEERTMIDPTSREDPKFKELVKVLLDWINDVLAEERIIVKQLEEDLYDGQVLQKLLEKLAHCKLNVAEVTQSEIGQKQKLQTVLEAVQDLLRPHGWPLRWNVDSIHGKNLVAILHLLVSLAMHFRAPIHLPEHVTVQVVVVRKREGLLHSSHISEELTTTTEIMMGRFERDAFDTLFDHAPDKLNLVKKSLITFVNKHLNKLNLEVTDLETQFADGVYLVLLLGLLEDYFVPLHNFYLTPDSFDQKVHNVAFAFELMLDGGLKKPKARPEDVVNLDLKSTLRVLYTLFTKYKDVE
UniProt Q9JHU9: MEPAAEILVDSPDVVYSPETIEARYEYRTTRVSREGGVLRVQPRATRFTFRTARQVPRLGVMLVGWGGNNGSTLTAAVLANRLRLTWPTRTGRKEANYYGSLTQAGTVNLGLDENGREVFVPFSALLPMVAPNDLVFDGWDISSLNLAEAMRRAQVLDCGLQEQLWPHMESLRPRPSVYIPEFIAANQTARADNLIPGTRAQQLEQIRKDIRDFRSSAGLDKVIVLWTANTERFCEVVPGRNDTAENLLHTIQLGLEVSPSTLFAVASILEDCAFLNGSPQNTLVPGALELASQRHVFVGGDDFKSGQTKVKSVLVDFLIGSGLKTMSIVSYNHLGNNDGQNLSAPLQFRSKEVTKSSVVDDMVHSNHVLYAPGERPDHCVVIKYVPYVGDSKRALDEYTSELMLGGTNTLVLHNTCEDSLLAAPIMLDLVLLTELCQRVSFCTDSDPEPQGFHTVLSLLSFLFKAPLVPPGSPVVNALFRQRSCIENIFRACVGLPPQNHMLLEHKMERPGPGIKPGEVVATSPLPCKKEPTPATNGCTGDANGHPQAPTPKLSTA
UniProt Q9JHR7, whole entry: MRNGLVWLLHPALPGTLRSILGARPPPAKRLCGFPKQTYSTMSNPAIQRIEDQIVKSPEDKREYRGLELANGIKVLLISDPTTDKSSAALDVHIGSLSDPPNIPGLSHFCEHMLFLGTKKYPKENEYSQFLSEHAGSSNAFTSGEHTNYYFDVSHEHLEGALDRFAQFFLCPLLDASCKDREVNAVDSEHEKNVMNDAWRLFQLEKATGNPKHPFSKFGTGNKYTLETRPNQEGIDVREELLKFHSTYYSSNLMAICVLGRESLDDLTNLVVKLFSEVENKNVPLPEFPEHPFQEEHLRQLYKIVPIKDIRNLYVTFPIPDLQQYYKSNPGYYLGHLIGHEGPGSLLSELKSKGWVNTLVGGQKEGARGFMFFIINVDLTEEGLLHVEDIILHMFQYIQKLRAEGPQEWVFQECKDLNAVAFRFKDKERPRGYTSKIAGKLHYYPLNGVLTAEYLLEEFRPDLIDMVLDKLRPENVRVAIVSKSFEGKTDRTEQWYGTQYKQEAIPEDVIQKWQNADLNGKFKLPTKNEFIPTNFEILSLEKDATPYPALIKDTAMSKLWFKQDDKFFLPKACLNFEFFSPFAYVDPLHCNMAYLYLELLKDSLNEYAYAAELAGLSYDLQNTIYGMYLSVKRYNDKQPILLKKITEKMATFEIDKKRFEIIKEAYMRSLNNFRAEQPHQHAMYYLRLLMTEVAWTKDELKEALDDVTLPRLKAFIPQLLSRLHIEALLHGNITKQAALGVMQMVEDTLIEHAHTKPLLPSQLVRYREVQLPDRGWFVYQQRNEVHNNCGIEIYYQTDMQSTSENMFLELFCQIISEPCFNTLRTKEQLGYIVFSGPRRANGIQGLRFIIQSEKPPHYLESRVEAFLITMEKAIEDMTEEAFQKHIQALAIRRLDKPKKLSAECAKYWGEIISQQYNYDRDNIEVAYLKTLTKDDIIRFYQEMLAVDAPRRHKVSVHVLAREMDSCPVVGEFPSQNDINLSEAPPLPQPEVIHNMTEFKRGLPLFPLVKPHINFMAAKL
UniProt Q9JLC6: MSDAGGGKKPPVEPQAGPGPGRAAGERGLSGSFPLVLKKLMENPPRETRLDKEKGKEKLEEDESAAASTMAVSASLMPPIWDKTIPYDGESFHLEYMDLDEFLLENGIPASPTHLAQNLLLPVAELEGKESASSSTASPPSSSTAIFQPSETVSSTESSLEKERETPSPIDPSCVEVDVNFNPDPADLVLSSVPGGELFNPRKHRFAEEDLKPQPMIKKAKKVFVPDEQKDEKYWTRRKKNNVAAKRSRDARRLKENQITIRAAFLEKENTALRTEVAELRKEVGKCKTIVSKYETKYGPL
UniProt Q9JIB0: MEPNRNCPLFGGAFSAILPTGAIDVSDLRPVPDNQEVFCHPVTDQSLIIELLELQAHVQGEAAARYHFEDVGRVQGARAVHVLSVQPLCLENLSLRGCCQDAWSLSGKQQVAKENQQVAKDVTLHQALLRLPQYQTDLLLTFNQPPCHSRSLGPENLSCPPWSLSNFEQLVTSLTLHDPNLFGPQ
UniProt Q9JHG6: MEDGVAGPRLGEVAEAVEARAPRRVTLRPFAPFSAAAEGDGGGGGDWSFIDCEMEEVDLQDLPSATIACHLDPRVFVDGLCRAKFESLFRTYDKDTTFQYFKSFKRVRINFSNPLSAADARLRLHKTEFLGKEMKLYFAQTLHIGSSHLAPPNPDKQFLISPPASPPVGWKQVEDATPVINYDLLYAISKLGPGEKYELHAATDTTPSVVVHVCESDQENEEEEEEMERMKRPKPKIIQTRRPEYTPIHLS
UniProt Q9ET54: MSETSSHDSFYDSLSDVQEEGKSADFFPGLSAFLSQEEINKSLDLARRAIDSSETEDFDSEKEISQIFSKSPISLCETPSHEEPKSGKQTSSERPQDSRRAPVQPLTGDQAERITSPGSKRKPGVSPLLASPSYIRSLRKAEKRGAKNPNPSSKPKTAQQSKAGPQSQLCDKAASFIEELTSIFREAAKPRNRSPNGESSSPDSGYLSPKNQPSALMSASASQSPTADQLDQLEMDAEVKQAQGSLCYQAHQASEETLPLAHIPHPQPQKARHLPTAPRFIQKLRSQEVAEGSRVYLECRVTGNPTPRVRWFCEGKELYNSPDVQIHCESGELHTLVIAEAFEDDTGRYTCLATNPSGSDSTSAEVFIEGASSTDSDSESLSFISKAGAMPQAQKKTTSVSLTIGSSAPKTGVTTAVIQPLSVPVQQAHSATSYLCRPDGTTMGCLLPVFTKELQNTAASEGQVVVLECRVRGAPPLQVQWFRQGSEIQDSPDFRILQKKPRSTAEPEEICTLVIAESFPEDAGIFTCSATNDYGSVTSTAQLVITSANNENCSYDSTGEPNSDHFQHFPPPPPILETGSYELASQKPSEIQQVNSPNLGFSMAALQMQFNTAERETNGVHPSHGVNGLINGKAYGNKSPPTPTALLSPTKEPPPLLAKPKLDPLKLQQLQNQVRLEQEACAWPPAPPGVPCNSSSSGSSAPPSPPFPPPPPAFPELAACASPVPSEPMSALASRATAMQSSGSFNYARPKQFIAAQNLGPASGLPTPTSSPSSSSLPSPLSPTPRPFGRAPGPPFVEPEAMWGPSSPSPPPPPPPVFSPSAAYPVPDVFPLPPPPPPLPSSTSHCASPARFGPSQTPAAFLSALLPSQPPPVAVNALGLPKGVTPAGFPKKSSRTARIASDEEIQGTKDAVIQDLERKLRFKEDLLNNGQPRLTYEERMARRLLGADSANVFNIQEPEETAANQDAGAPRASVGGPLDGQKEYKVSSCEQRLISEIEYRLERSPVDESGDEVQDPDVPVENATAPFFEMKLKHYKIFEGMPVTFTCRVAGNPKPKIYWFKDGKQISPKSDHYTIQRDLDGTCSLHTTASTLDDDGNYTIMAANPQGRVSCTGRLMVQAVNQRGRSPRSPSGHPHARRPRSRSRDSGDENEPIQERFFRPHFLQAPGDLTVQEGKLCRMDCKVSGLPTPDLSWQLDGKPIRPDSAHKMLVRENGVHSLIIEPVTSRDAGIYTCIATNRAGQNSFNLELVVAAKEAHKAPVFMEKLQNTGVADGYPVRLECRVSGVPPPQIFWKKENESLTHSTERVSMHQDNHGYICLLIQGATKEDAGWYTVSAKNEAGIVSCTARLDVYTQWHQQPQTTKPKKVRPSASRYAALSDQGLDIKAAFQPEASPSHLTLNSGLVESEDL
UniProt Q9ESB3: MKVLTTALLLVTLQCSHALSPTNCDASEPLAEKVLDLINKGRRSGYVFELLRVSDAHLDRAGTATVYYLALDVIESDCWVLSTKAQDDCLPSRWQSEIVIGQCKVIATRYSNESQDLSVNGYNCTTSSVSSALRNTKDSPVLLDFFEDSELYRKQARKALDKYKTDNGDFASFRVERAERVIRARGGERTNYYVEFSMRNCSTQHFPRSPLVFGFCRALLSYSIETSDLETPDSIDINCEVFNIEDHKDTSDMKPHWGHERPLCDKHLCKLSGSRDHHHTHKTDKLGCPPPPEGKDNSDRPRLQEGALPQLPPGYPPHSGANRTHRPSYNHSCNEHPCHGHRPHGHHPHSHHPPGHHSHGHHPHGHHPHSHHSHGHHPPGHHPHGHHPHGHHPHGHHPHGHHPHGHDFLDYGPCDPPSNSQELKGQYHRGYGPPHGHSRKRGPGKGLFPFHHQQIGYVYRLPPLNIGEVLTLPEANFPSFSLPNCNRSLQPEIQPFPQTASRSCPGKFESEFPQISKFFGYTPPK
UniProt Q9JM98: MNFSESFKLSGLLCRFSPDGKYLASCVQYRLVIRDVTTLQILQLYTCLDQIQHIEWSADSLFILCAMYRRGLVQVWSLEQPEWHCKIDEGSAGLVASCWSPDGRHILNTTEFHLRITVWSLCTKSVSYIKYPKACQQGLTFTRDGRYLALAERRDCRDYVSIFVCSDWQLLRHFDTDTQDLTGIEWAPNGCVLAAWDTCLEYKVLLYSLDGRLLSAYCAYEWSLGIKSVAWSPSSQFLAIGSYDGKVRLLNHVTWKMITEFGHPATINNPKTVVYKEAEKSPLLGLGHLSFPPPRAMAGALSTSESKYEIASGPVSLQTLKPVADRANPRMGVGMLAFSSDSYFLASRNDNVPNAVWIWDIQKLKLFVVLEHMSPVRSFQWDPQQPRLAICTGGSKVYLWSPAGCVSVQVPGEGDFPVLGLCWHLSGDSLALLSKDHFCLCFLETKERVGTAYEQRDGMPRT
UniProt Q9JJ89: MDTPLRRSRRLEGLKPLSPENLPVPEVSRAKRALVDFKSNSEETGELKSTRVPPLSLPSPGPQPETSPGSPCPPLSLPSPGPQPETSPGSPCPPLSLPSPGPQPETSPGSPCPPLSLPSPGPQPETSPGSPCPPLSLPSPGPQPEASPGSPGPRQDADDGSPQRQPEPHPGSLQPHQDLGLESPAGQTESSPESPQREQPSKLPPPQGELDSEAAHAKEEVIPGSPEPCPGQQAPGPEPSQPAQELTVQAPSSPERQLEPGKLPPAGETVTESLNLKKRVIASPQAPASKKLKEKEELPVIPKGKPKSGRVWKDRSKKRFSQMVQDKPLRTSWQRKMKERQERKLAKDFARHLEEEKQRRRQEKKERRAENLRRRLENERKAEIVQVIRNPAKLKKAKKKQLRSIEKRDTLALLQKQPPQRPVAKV

Compound: CN[C@@H]1C[C@H]2O[C@@](C)([C@@H]1OC)n1c3ccccc3c3c4c(c5c6ccccc6n2c5c31)C(=O)NC4 [staurosporine]
Experiment: log2 fold change of tryptic peptide abundance, ligand vs vehicle (limited proteolysis) (log2 ratio); higher = more trypsin-susceptible (destabilized)
Conditions: ligand concentration: 20 uM; sample: mouse liver crude lysate; replicate design: treated separately

Q: How did the log2 fold change turn out when “UniProt Q9ES52 (peptide sequence: TGSSNLPHLKK, peptide start residue: 204)” was run?
A: 0.584

Q: For “UniProt Q9JKW0 (peptide sequence: FHEICSNLVK, peptide start residue: 105)”, which log2 fold change is on record?
A: 0.241

Q: With “UniProt Q9JK81 (peptide sequence: LNFYQHSWLPAR, peptide start residue: 231)” as the target, how does the log2 fold change read?
A: -0.516

Q: Which log2 fold change does the source give for “UniProt Q9JI08 (peptide sequence: KSTDADLAMSK, peptide start residue: 47)” here?
A: -0.597

Q: For “UniProt Q9JLJ1 (peptide sequence: YDDGRGPPGNPPRR, peptide start residue: 60)”, which log2 fold change is on record?
A: 0.371

Q: How did the log2 fold change turn out when “UniProt Q9QUH0 (peptide sequence: TQEILSQLPFK, peptide start residue: 29)” was run?
A: -0.294

Q: “UniProt Q9JIX9 (peptide sequence: LEVALSCPR, peptide start residue: 168)” was tested. Which log2 fold change did it give?
A: -0.0679

Q: With “UniProt Q9JHK4 (peptide sequence: FLVENSVLK, peptide start residue: 429)” as the target, how does the log2 fold change read?
A: -0.36

Q: Which log2 fold change does the source give for “UniProt Q9ET22 (peptide sequence: KLESTLIR, peptide start residue: 473)” here?
A: 0.135

Q: For “UniProt Q9JJR8 (peptide sequence: SRANVLNKVEYAQQR, peptide start residue: 165)”, which log2 fold change is on record?
A: -0.408

Q: “UniProt Q9JI44 (peptide sequence: DILELGGPEGDAASGTISKK, peptide start residue: 9)” was tested. Which log2 fold change did it give?
A: -0.145

Q: “UniProt Q9JKS5 (peptide sequence: EYRPYETER, peptide start residue: 149)” was tested. Which log2 fold change did it give?
A: 0.156

Q: For “UniProt Q9ES46 (peptide sequence: ARPEDVVNLDLK, peptide start residue: 337)”, which log2 fold change is on record?
A: -0.431

Q: “UniProt Q9JHU9 (peptide sequence: HVFVGGDDFK, peptide start residue: 296)” was tested. Which log2 fold change did it give?
A: -0.387

Q: With “UniProt Q9QWW1 (peptide sequence: IDDLHDFR, peptide start residue: 337)” as the target, how does the log2 fold change read?
A: 0.69

Q: How did the log2 fold change turn out when “UniProt Q9JHR7 (peptide sequence: AFIPQLLSR, peptide start residue: 714)” was run?
A: -0.398

Q: For “UniProt Q9JLQ2 (peptide sequence: LQTLQSENSSLRR, peptide start residue: 414)”, which log2 fold change is on record?
A: -0.187

Q: For “UniProt Q9JLC6 (peptide sequence: FAEEDLKPQPMIKK, peptide start residue: 206)”, which log2 fold change is on record?
A: 0.388

Q: Which log2 fold change does the source give for “UniProt Q9JKF7 (peptide sequence: RFQGLSLPTHLR, peptide start residue: 293)” here?
A: 0.405

Q: Which log2 fold change does the source give for “UniProt Q9JMD0 (peptide sequence: PAASITSKPATLTTTSATSK, peptide start residue: 360)” here?
A: 0.418

Q: “UniProt Q9QUI1 (peptide sequence: IHDELSR, peptide start residue: 51)” was tested. Which log2 fold change did it give?
A: -0.501

Q: “UniProt Q9JLV5 (peptide sequence: TECGCQFTSK, peptide start residue: 460)” was tested. Which log2 fold change did it give?
A: -0.956

Q: How did the log2 fold change turn out when “UniProt Q9JJG0 (peptide sequence: NKEIEELTK, peptide start residue: 1129)” was run?
A: 0.667

Q: With “UniProt Q9JIB0 (peptide sequence: YHFEDVGR, peptide start residue: 66)” as the target, how does the log2 fold change read?
A: 0.307

Q: With “UniProt Q9JM96 (peptide sequence: SLSSSPVKK, peptide start residue: 136)” as the target, how does the log2 fold change read?
A: -0.268

Q: “UniProt Q9JHG6 (peptide sequence: AKFESLFR, peptide start residue: 83)” was tested. Which log2 fold change did it give?
A: -0.0976

Q: How did the log2 fold change turn out when “UniProt Q9ET54 (peptide sequence: GVTPAGFPKK, peptide start residue: 883)” was run?
A: 0.101

Q: For “UniProt Q9JIY2 (peptide sequence: SVSQETFR, peptide start residue: 276)”, which log2 fold change is on record?
A: -0.191

Q: For “UniProt Q9ESB3 (peptide sequence: SPLVFGFCR, peptide start residue: 209)”, which log2 fold change is on record?
A: -0.207

Q: For “UniProt Q9JM98 (peptide sequence: MITEFGHPATINNPK, peptide start residue: 257)”, which log2 fold change is on record?
A: -0.3

Q: Which log2 fold change does the source give for “UniProt Q9JJ89 (peptide sequence: AEIVQVIR, peptide start residue: 382)” here?
A: -0.306
